The target of the test is neurotrophin receptor p75NTR (human (endogenous in PMDC05)) (UniProt P08138). The test can be described thus: affinity purification with mass spectrometry; endogenous p75NTR captured with antibody ME20.4 on protein G Dynabeads from lysate of 2 × 10^7 PMDC05 cells (130 mM NaCl, 50 mM HEPES pH 7.4, 1% Triton X-100), overnight at 4°C; acid elution fraction (0.1 M glycine pH 2.4) analysed by LC-MS/MS.

Chains of the proteins cited; added tags and fusions are not shown. Residues count along the entry.
UniProt P08138, residues 29-427: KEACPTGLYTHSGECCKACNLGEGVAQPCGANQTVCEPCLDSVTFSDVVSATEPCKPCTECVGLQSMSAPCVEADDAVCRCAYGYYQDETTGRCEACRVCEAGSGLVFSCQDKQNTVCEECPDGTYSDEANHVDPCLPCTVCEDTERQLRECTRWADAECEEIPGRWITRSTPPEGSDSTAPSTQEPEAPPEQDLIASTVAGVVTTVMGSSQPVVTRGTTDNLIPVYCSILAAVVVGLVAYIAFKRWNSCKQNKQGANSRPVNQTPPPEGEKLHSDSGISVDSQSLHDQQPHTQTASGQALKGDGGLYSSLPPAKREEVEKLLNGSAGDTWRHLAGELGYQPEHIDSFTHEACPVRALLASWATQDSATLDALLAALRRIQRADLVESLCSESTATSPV
UniProt P62258: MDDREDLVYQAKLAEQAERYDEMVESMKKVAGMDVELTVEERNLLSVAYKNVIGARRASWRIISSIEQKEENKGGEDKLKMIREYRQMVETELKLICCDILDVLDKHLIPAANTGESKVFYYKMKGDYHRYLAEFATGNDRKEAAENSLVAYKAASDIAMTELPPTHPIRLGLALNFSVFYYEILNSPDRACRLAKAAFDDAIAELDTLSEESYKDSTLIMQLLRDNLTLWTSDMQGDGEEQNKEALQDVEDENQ

Experimental findings from paper PMC8085361 are described below.

These are yes or no findings as the source states them, for the method shown. Binding seen in cells or lysates may run through a third protein. Here binding means that the protein was enriched with, or labelled near, the bait; the list need not be complete.

Regarding 14-3-3ϵ (from UniProt P62258 1-255), the binding entry was “binds”.
